PubChem BioAssay AID504764 – Drosophila RNAi Screening Center – 2011

Purpose: 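Genes whose knock-down alters Notch-dependent transcription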 (primary screen)
Cell system: Drosophila Kc167 cells
Reagent: long dsRNA against Drosophila genes
Duration: about 5 days (4 days dsRNA, then 24 h after transfection)
Challenge: transfection of constitutively active membrane-tethered Notch lacking the extracellular domain, read 24 h later
Measurement: 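Light from a Notch-responsive E(spl)m3 luciferase reporter under active Notch, with control-promoter and no-Notch reporter wells to normalise; raw counts from paired wells a and b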
Scale: induced reporter light, run 1, well a and induced reporter light, run 1, well b: higher = more light from the Notch target reporter with active Notch; control promoter light, run 1, well a and control promoter light, run 1, well b: higher = more light from the viral control promoter (cell number, transfection, viability); uninduced reporter light, run 1, well a: higher = more light from the Notch target reporter without active Notch
Rule for the call: 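Hit if the duplicate-averaged log2 ratio of induced to control-promoter light gives a plate-wise z beyond ±2, or induced to uninduced beyond ±1.8; weak-control or discordant-duplicate wells dropped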
Meaning of the calls: active = modifier hit (raised or lowered Notch signal); inactive = not a hit
The screen tested about 22,000 reagents; this is an unselected part of those with a known target gene and a result. In the full data, 403 (1.9%) got an active call. 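Unnormalised raw counts per well; ratio z-scores behind the hit calls and whether each hit raises or lowers signal are not deposited.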 Reagents against one gene are numbered here. Not given: the amount of reagent.

After knock-down of Andorra, the record shows induced reporter light, run 1, well a = 23615; induced reporter light, run 1, well b = 29130; control promoter light, run 1, well a = 22890; control promoter light, run 1, well b = 20305; uninduced reporter light, run 1, well a = 3015; inactive.
Depletion of CG7264 gave: induced reporter light, run 1, well a = 1.51e5; induced reporter light, run 1, well b = 96295; control promoter light, run 1, well a = 1.82e5; control promoter light, run 1, well b = 1.31e5; uninduced reporter light, run 1, well a = 6560; inactive.
Set gave induced reporter light, run 1, well a = 98235; induced reporter light, run 1, well b = 1.05e5; control promoter light, run 1, well a = 82655; control promoter light, run 1, well b = 55960; uninduced reporter light, run 1, well a = 8180; inactive.
With knock-down of Osi6, the screen gave induced reporter light, run 1, well a = 38565; induced reporter light, run 1, well b = 43080; control promoter light, run 1, well a = 43280; control promoter light, run 1, well b = 29540; uninduced reporter light, run 1, well a = 2615; inactive.
Depletion of CG34425 gave: induced reporter light, run 1, well a = 61020; induced reporter light, run 1, well b = 41220; control promoter light, run 1, well a = 37245; control promoter light, run 1, well b = 36180; uninduced reporter light, run 1, well a = 3245; inactive.
Silencing of CG8531 came out at: induced reporter light, run 1, well a = 1.59e5; induced reporter light, run 1, well b = 1.42e5; control promoter light, run 1, well a = 1.91e5; control promoter light, run 1, well b = 1.88e5; uninduced reporter light, run 1, well a = 11855; inactive.
Silencing of Claspin resulted in: induced reporter light, run 1, well a = 1.97e5; induced reporter light, run 1, well b = 2.04e5; control promoter light, run 1, well a = 3.12e5; control promoter light, run 1, well b = 3.31e5; uninduced reporter light, run 1, well a = 13470; inactive.
CG1116 scored induced reporter light, run 1, well a = 52830; induced reporter light, run 1, well b = 72765; control promoter light, run 1, well a = 49545; control promoter light, run 1, well b = 55170; uninduced reporter light, run 1, well a = 5030; inactive.
Fa2h #1 scored induced reporter light, run 1, well a = 2.02e5; induced reporter light, run 1, well b = 1.79e5; control promoter light, run 1, well a = 2.75e5; control promoter light, run 1, well b = 2.43e5; uninduced reporter light, run 1, well a = 17020; inactive.
After knock-down of Fa2h #2, the record shows induced reporter light, run 1, well a = 1.14e5; induced reporter light, run 1, well b = 1.36e5; control promoter light, run 1, well a = 1.87e5; control promoter light, run 1, well b = 1.69e5; uninduced reporter light, run 1, well a = 11095; inactive.
After knock-down of CG30286, the record shows induced reporter light, run 1, well a = 55445; induced reporter light, run 1, well b = 58785; control promoter light, run 1, well a = 47950; control promoter light, run 1, well b = 78135; uninduced reporter light, run 1, well a = 3065; inactive.
Elba3 gave induced reporter light, run 1, well a = 1.41e5; induced reporter light, run 1, well b = 1.36e5; control promoter light, run 1, well a = 1.43e5; control promoter light, run 1, well b = 1.84e5; uninduced reporter light, run 1, well a = 14345; inactive.
Depletion of CG12637 resulted in: induced reporter light, run 1, well a = 1.44e5; induced reporter light, run 1, well b = 1.51e5; control promoter light, run 1, well a = 2.97e5; control promoter light, run 1, well b = 3.16e5; uninduced reporter light, run 1, well a = 12235; inactive.
CG8195 scored induced reporter light, run 1, well a = 1.28e5; induced reporter light, run 1, well b = 1.41e5; control promoter light, run 1, well a = 2.20e5; control promoter light, run 1, well b = 2.90e5; uninduced reporter light, run 1, well a = 11500; inactive.

An excerpt from above, showing only “induced reporter light, run 1, well a”.
CG30286: 55445
Elba3: 1.41e5

The listing continues:
wfs1 scored induced reporter light, run 1, well a = 1.59e5; induced reporter light, run 1, well b = 2.10e5; control promoter light, run 1, well a = 1.87e5; control promoter light, run 1, well b = 2.21e5; uninduced reporter light, run 1, well a = 16540; inactive.
After knock-down of InR the results were induced reporter light, run 1, well a = 1.66e5; induced reporter light, run 1, well b = 1.29e5; control promoter light, run 1, well a = 1.55e5; control promoter light, run 1, well b = 1.41e5; uninduced reporter light, run 1, well a = 10375; inactive.
Against CG13836 (retired record), the values are induced reporter light, run 1, well a = 1.91e5; induced reporter light, run 1, well b = 1.39e5; control promoter light, run 1, well a = 2.06e5; control promoter light, run 1, well b = 2.18e5; uninduced reporter light, run 1, well a = 14115; inactive.
bi gave induced reporter light, run 1, well a = 1.79e5; induced reporter light, run 1, well b = 1.72e5; control promoter light, run 1, well a = 3.28e5; control promoter light, run 1, well b = 2.61e5; uninduced reporter light, run 1, well a = 12540; inactive.
Knock-down of Arl2 resulted in: induced reporter light, run 1, well a = 1.30e5; induced reporter light, run 1, well b = 1.37e5; control promoter light, run 1, well a = 1.44e5; control promoter light, run 1, well b = 1.08e5; uninduced reporter light, run 1, well a = 5505; inactive.
Depletion of Or59a came out at: induced reporter light, run 1, well a = 53110; induced reporter light, run 1, well b = 43240; control promoter light, run 1, well a = 31835; control promoter light, run 1, well b = 34955; uninduced reporter light, run 1, well a = 3680; inactive.
d-cup gave induced reporter light, run 1, well a = 1.01e5; induced reporter light, run 1, well b = 1.21e5; control promoter light, run 1, well a = 99660; control promoter light, run 1, well b = 1.02e5; uninduced reporter light, run 1, well a = 6560; inactive.
After knock-down of CG4914 the results were induced reporter light, run 1, well a = 2.00e5; induced reporter light, run 1, well b = 1.40e5; control promoter light, run 1, well a = 2.43e5; control promoter light, run 1, well b = 2.02e5; uninduced reporter light, run 1, well a = 10600; inactive.
With knock-down of CG11977 the results were induced reporter light, run 1, well a = 74350; induced reporter light, run 1, well b = 90650; control promoter light, run 1, well a = 71780; control promoter light, run 1, well b = 48760; uninduced reporter light, run 1, well a = 6350; inactive.
For AstA, the entry reads induced reporter light, run 1, well a = 1.59e5; induced reporter light, run 1, well b = 1.69e5; control promoter light, run 1, well a = 1.96e5; control promoter light, run 1, well b = 2.08e5; uninduced reporter light, run 1, well a = 12935; inactive.
